Experimental findings from PMC9000958, “Sticks and Stones, a conserved cell surface ligand for the Type IIa RPTP Lar, regulates neural circuit wiring in Drosophila” (eLife, 2022) are described below.

Protein sequences, listed by entry. Tags and fused reporters are not part of them. Residues count along the entry.
UniProt P10586, residues 30-1263: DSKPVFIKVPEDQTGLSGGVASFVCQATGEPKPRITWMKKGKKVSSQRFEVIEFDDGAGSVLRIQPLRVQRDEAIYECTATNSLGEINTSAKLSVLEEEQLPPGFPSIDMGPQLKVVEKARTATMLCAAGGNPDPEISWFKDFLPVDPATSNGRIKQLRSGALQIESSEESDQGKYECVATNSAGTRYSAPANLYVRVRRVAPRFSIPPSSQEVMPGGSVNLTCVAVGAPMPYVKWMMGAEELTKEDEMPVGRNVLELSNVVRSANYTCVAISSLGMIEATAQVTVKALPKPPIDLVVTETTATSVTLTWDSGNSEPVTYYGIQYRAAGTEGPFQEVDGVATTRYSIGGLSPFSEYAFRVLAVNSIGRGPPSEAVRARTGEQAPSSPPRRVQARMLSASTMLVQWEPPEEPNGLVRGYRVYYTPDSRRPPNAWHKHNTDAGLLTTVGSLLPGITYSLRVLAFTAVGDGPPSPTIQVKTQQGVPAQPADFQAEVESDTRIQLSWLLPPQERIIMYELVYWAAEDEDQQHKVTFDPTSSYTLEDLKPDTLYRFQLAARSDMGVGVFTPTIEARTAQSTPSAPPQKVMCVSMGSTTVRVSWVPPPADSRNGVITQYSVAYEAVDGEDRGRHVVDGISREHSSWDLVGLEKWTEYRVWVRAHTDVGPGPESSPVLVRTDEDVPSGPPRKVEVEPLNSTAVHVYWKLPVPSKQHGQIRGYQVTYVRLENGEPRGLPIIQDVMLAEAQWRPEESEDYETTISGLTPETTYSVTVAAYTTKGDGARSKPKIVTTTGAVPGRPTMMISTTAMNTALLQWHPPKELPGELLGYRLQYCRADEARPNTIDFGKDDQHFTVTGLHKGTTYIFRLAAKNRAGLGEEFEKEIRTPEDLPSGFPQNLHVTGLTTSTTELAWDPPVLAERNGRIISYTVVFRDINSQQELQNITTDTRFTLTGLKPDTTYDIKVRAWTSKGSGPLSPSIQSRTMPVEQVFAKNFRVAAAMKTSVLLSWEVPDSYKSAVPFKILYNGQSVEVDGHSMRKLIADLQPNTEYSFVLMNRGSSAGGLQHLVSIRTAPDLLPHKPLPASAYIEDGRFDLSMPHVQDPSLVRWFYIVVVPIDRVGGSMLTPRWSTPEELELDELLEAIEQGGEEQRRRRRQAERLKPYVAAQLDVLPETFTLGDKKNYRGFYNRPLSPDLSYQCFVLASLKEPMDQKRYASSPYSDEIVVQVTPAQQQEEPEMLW

This assay addresses T1, Nephrin-Fc fusion protein (human) (UniProt O60500).
T1 sequence: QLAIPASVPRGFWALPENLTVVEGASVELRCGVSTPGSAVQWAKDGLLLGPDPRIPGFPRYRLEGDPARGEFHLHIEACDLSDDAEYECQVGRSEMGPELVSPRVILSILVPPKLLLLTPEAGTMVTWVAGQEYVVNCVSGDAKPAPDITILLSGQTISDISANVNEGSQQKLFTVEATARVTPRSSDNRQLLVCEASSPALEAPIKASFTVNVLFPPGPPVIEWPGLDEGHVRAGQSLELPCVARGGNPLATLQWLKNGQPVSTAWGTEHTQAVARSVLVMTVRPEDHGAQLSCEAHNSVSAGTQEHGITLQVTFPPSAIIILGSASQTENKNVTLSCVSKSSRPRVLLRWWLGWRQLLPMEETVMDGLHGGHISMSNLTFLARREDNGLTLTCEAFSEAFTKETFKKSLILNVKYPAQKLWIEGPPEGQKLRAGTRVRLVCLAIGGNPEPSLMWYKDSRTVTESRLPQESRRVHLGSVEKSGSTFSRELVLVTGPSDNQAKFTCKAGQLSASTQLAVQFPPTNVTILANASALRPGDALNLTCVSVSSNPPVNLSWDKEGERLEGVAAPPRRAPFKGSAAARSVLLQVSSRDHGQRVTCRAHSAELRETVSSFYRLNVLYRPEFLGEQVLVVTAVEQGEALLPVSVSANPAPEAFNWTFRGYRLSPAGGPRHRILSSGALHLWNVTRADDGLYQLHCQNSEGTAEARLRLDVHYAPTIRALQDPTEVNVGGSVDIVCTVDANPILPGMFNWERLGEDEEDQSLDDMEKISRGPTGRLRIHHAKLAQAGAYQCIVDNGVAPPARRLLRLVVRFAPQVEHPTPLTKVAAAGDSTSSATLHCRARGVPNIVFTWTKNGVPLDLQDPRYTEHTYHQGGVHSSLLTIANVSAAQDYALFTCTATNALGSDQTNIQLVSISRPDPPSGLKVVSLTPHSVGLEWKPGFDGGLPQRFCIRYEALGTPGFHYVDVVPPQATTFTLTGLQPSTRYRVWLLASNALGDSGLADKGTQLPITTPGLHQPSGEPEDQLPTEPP
Put plainly: ELISA; ECIA: Fc fusion bait (1x supernatant) captured by anti-human IgG (Fc-specific) on plate; AP5 fusion prey (1x supernatant) pre-clustered with anti-AP:biotin, overnight at room temperature; streptavidin:HRP, TMB, absorbance at 450 nm. On the technique in general: An ELISA detects its analyte on a solid surface through an enzyme-linked reagent.

These are yes or no findings as the source states them, for the method shown. Some entries that bind do so weakly or less than the wild type. Tags and fused reporters may be left off the sequences shown.

“PTPRF-AP5 fusion protein (from UniProt P10586 30-1263) (domain or fragment)”: the binding result is listed as “binds”.

B1: PTPRD-AP5 fusion protein (domain or fragment, human, UniProt P23468 21-1265, looked up)
chain: ETPPRFTRTPVDQTGVSGGVASFICQATGDPRPKIVWNKKGKKVSNQRFEVIEFDDGSGSVLRIQPLRTPRDEAIYECVASNNVGEISVSTRLTVLREDQIPRGFPTIDMGPQLKVVERTRTATMLCAASGNPDPEITWFKDFLPVDTSNNNGRIKQLRSESIGGTPIRGALQIEQSEESDQGKYECVATNSAGTRYSAPANLYVRELREVRRVPPRFSIPPTNHEIMPGGSVNITCVAVGSPMPYVKWMLGAEDLTPEDDMPIGRNVLELNDVRQSANYTCVAMSTLGVIEAIAQITVKALPKPPGTPVVTESTATSITLTWDSGNPEPVSYYIIQHKPKNSEELYKEIDGVATTRYSVAGLSPYSDYEFRVVAVNNIGRGPPSEPVLTQTSEQAPSSAPRDVQARMLSSTTILVQWKEPEEPNGQIQGYRVYYTMDPTQHVNNWMKHNVADSQITTIGNLVPQKTYSVKVLAFTSIGDGPLSSDIQVITQTGVPGQPLNFKAEPESETSILLSWTPPRSDTIANYELVYKDGEHGEEQRITIEPGTSYRLQGLKPNSLYYFRLAARSPQGLGASTAEISARTMQSKPSAPPQDISCTSPSSTSILVSWQPPPVEKQNGIITEYSIKYTAVDGEDDKPHEILGIPSDTTKYLLEQLEKWTEYRITVTAHTDVGPGPESLSVLIRTNEDVPSGPPRKVEVEAVNSTSVKVSWRSPVPNKQHGQIRGYQVHYVRMENGEPKGQPMLKDVMLADAQWEFDDTTEHDMIISGLQPETSYSLTVTAYTTKGDGARSKPKLVSTTGAVPGKPRLVINHTQMNTALIQWHPPVDTFGPLQGYRLKFGRKDMEPLTTLEFSEKEDHFTATDIHKGASYVFRLSARNKVGFGEEMVKEISIPEEVPTGFPQNLHSEGTTSTSVQLSWQPPVLAERNGIITKYTLLYRDINIPLLPMEQLIVPADTTMTLTGLKPDTTYDVKVRAHTSKGPGPYSPSVQFRTLPVDQVFAKNFHVKAVMKTSVLLSWEIPENYNSAMPFKILYDDGKMVEEVDGRATQKLIVNLKPEKSYSFVLTNRGNSAGGLQHRVTAKTAPDVLRTKPAFIGKTNLDGMITVQLPEVPANENIKGYYIIIVPLKKSRGKFIKPWESPDEMELDELLKEISRKRRSIRYGREVELKPYIAAHFDVLPTEFTLGDDKHYGGFTNKQLQSGQEYVFFVLAVMEHAESKMYATSPYSDPVVSMDLDPQPITDEEE
notes: human PTPRD extracellular domain, amplified from a full-length cDNA; also called PTPδ; source: Drosophila S2 cells, transfected, supernatant
As for B1, the binding result is listed as “binds”.
